Experimental data: PubChem BioAssay AID743454 (Peter MacCallum Cancer Centre, 2014)
Shown is an unselected part of about 18,000 reagents. 450 of all reagents (2.5%) count as active. 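Single biological run; no consistent viability z cut-off exists, so the class columns, not z-scores, define the calls.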

Aim: 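Knock-downs lowering viability or raising caspase 3/7 activity in vorinostat-treated resistant cells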 (primary screen)
System: human HCT116-VR colon cancer cells, selected for vorinostat resistance
Reagents: siRNA pool against human genes, 40 nM siRNA pool
Timing: vorinostat for 24 h, read-out about 72 h after transfection
Treatment: vorinostat at 2.5 µM final
Measurement: 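Cell viability by CellTiter-Fluor and caspase 3/7 activity by luminescence, each scaled to mock wells per plate, duplicates averaged, then robust z-scored over all plates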
Direction: viability robust z-score: higher = more viable cells than screen typical; caspase robust z-score: higher = more caspase 3/7 activity than screen typical
Rule for the call: 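a knock-down is a hit when classed RV1 or RV2 for lowered viability, or CA1 or CA2 for caspase activation; those lethal without drug were dropped; hits were retested singly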

target | viability hit class | caspase hit class | viability robust z-score | caspase robust z-score | Call
CARS2 (cysteinyl-tRNA synthetase 2, mitochondrial) | no change | no change | -0.52 | -0.59 | inactive
PPP1R42 (protein phosphatase 1 regulatory subunit 42) | no change | no change | -0.62 | -1.23 | inactive
POMGNT1 | no change | no change | -0.01 | 0.78 | inactive
MREG (melanoregulin) | no change | no change | 0.28 | -0.31 | inactive
RAB40C (RAB40C, member RAS oncogene family) | no change | no change | 0.23 | -0.78 | inactive
SFMBT2 (Scm like with four mbt domains 2) | no change | no change | -0.11 | -0.08 | inactive
KIAA2013 | no change | no change | -2.14 | 3.08 | inactive
PRAMEF10 (PRAME family member 10) | no change | no change | 0.3 | 2.64 | inactive
CASP10 (caspase 10) | no change | no change | 0.44 | -0.31 | inactive
TOX (thymocyte selection associated high mobility group box) | no change | no change | -0.28 | 0.3 | inactive
ADNP (activity dependent neuroprotector homeobox) | no change | no change | 0.83 | -0.36 | inactive
RNPEP (arginyl aminopeptidase) | no change | no change | -0.22 | 2.24 | inactive
GGT5 (gamma-glutamyltransferase 5) | no change | no change | -0.7 | 1.01 | inactive
GNE | no change | no change | -0.83 | 1.66 | inactive
UGT2B15 (UDP glucuronosyltransferase family 2 member B15) | no change | no change | -0.03 | -0.82 | inactive
GADD45G (growth arrest and DNA damage inducible gamma) | no change | no change | -0.08 | -0.9 | inactive
STX2 (syntaxin 2) | no change | no change | -1.12 | 0.2 | inactive
PGM5 (phosphoglucomutase 5) | no change | no change | 0.08 | 0.56 | inactive
UBE2W (ubiquitin conjugating enzyme E2 W) | no change | no change | -0.47 | 0.03 | inactive
CD80 (CD80 molecule) | no change | no change | -0.52 | 0.04 | inactive
VARS1 (valyl-tRNA synthetase 1) | no change | no change | -2.59 | 3.94 | inactive
SLC8A3 | no change | no change | -0.12 | -0.68 | inactive
LRWD1 (leucine rich repeats and WD repeat domain containing 1) | no change | no change | 0.09 | -0.3 | inactive
GATA1 (GATA binding protein 1) | no change | CA2 (caspase activation) | -2.66 | 7.6 | active
WLS (Wnt ligand secretion mediator) | no change | no change | 0.46 | -0.6 | inactive
TRPM5 | no change | no change | -0.38 | -0.32 | inactive
GABRR2 (gamma-aminobutyric acid type A receptor subunit rho2) | no change | no change | 0.22 | -0.96 | inactive
IL12A (interleukin 12A) | no change | no change | 0.78 | 2.5 | inactive
KRTAP19-1 (keratin associated protein 19-1) | no change | no change | -0.06 | -0.82 | inactive
CLEC1B (C-type lectin domain family 1 member B) | no change | no change | -0.5 | 0.95 | inactive
DCP1B (decapping mRNA 1B) | no change | no change | -0.71 | -1.1 | inactive
MASTL (microtubule associated serine/threonine kinase like) | no change | no change | -0.48 | 2.7 | inactive
PLA2G2A (phospholipase A2 group IIA) | no change | no change | -0.73 | 0.16 | inactive
CD300LG (CD300 molecule like family member g) | no change | no change | 1.26 | 1.16 | inactive
HPCAL4 (hippocalcin like 4) | no change | no change | -1.02 | 0.52 | inactive
MYLK2 (myosin light chain kinase 2) | no change | no change | -2.66 | 3.9 | inactive
ZNF331 (zinc finger protein 331) | no change | no change | -0.06 | 1.29 | inactive
GTF2IRD2B (GTF2I repeat domain containing 2B) | no change | no change | 0.22 | 0.58 | inactive

Quoted from the entries so far for reference:
target | viability hit class | caspase hit class | viability robust z-score | caspase robust z-score | Call
PGM5 (phosphoglucomutase 5) | no change | no change | 0.08 | 0.56 | inactive
UBE2W (ubiquitin conjugating enzyme E2 W) | no change | no change | -0.47 | 0.03 | inactive
CD80 (CD80 molecule) | no change | no change | -0.52 | 0.04 | inactive
VARS1 (valyl-tRNA synthetase 1) | no change | no change | -2.59 | 3.94 | inactive
SLC8A3 | no change | no change | -0.12 | -0.68 | inactive

Continued.
target | viability hit class | caspase hit class | viability robust z-score | caspase robust z-score | Call
TUBAL3 (tubulin alpha like 3) | no change | no change | 0.58 | -0.96 | inactive
PTCH2 (patched 2) | no change | no change | -1.16 | -0.55 | inactive
ESYT2 (extended synaptotagmin 2) | no change | no change | -1.38 | 3.15 | inactive
ICA1L (islet cell autoantigen 1 like) | no change | no change | 0.09 | -0.11 | inactive
TMIGD2 (transmembrane and immunoglobulin domain containing 2) | no change | no change | 0.93 | 0.7 | inactive
SIX3 (SIX homeobox 3) | no change | no change | -0.51 | -0.7 | inactive
IFNAR1 (interferon alpha and beta receptor subunit 1) | no change | no change | 0.78 | -0.43 | inactive
ELAC1 (elaC ribonuclease Z 1) | no change | no change | 0.6 | -0.24 | inactive
SLC19A1 | no change | no change | 1.08 | -0.98 | inactive
ZMAT1 (zinc finger matrin-type 1) | no change | no change | 1.19 | -0.24 | inactive
SMG1 | RV1 (reduced viability) | no change | -4.54 | 4.79 | active
SNN (stannin) | no change | no change | -0.12 | -0.8 | inactive
XKR9 (XK related 9) | no change | no change | -0.13 | -0.76 | inactive
GPR34 (G protein-coupled receptor 34) | no change | no change | 1.01 | 1.86 | inactive
IP6K3 (inositol hexakisphosphate kinase 3) | no change | no change | -0.8 | -0.22 | inactive
TPCN1 (two pore segment channel 1) | no change | no change | -0.9 | -0.7 | inactive
TBC1D20 (TBC1 domain family member 20) | no change | CA2 (caspase activation) | -1.15 | 5.98 | active
RPL15 (ribosomal protein L15) | no change | no change | -3.7 | 0.08 | inactive
NUTF2 (nuclear transport factor 2) | no change | no change | -4.03 | 3.74 | inactive
